From the supplement of paper PMC12823440, “Inhibitors supercharge kinase turnover through native proteolytic circuits” (Nature, 2025)
Counter-ions that a name gives are not always drawn. This is one part of the list. The calls rarely recur for the same compound in another form.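 In K562 cells expressing nanoluciferase-fused kinases, luminescence was recorded at 4 h intervals between 2 and 18 h, normalized as percent of control with DMSO at 100% and a positive control at 0%. A significant (2 sigma) signal drop marks a time point as decreased. The authors' rule for a hit is not shown and takes in more than the number of time points.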

Biological target: EGFR_L858R (UniProt P00533)
Experiment: kinase-Nluc reporter destabilization hit call (1 = scored as downregulated) (binary); higher = compound decreases kinase abundance
Conditions: K562; 2-18 h

kinase-Nluc reporter destabilization hit call, inactive:
O=c1cc(-c2ccc(O[C@@H]3O[C@H](CO)[C@@H](O)[C@H](O)[C@H]3O)cc2)oc2cc(O)c([C@@H]3O[C@H](CO)[C@@H](O)[C@H](O)[C@H]3O[C@@H]3OC[C@H](O)[C@H](O)[C@H]3O)c(O)c12 [Vaccarin] (10 µM) 0, O=CN1CCN(c2ccc(C=C3C(=O)Nc4ccccc43)cc2)CC1 (10 µM) 0, COc1ccc(Cl)cc1N(CC(=O)Nc1ccc2c(c1)OCO2)S(=O)(=O)c1ccccc1 (2.5 µM) 0, CCc1c(C(=O)NNC(=O)[C@H](O)c2cc(F)cc(F)c2)ccc(O)c1C (10 µM) 0, CN(C)CCn1cc2cc(NC(=O)c3cccc(C(F)(F)F)n3)c(C(C)(C)O)cc2n1 (10 µM) 0, CCC[C@H](C)Oc1nc(N)c2[nH]c(=O)n(CCCCCN3CCCCC3)c2n1 (10 µM) 0, CCOC(=O)c1c(C)[nH]c(C=C2C(=O)Nc3ccccc32)c1C (10 µM) 0, Cc1ccc(NC(=O)N2CCN(c3nc(N)nc4sc(-c5cccnc5)nc34)CC2)cc1 [PI4KIII beta inhibitor 3] (10 µM) 0, CS[C@@]1(C(=O)Nc2ccc3[nH]nc(-c4ccc(OC(C)C)nc4)c3c2)CCN(CC(=O)N2CC=C(c3ccc(-c4ncn(C)n4)cc3)CC2)C1 (2.5 µM) 0, O=C(Nc1ccc(Cl)cc1)C1CN(C(=O)c2cccc(-c3ccco3)c2)CC(F)(F)C1 (stereo not drawn) (2.5 µM) 0, Nc1ccc(Sc2nc3ccccc3s2)c(Cl)c1 [KRAS inhibitor-9] (10 µM) 0, Cn1c(N2CCO[C@@H](c3ccc(F)cc3)C2)nc(-c2ccncn2)cc1=O (10 µM) 0, COc1ccc(CN2CCC(c3ccc4nc(C(=O)N5CCN(Cc6ccc(C(F)(F)F)cc6)CC5)[nH]c4c3)CC2)cn1 (2.5 µM) 0, O=C(O)c1c[nH]c2cc(Cl)c(-c3ccc(C4(O)CCC4)cc3)cc12 (10 µM) 0, CC(C)(Oc1ccc(Cl)cc1)C(=O)Nc1ccc(OCc2ccc(C#N)cc2)cc1 [AMPK activator 4] (10 µM) 0, O=C(NCc1ccn[nH]1)c1cc([C@@H]2CCNC[C@H]2COc2ccc3c(c2)OCO3)ccc1F [GRK2-IN-1 (hydrochloride)] (10 µM) 0, Cc1cnc(Cl)nc1-c1ccc(N(Cc2ccc(CNC(=O)C(F)F)cc2)C(=O)c2ccc(O)cc2O)cc1 (10 µM) 0, CC1=C(C#N)C(c2ccc3[nH]nc(C)c3c2)C(C#N)=C(C)N1 (10 µM) 0, CN(C[C@@H]1COCCO1)S(=O)(=O)Nc1ccc2ccc3ncc(-c4cnn(C)c4)cc3c(=O)c2c1 (2.5 µM) 0, CC(=O)Nc1nc(C)c(-c2cc(C)c3c(c2)CN([C@@H](C)C2CC2)C3=O)s1 (10 µM) 0, O=C(Nc1ccccc1C(=O)NC1CCCCNC1=O)c1cc2ccccc2s1 (stereo not drawn) (10 µM) 0, CO[C@]1(C(=O)N[C@@H](C)c2ccc(-n3cc(F)cn3)nc2)CC[C@H](c2nc(C)cc(Nc3cc(C)[nH]n3)n2)CC1 [Pralsetinib] (10 µM) 0, O=[N+]([O-])c1ccc(-c2nc(-c3ccc(F)cc3)c(-c3ccncc3)[nH]2)cc1 (10 µM) 0, CC(ONC(=O)c1cc(C(F)(F)F)cc(C(F)(F)F)c1)C(=O)Nc1ccc(Cl)cc1 (stereo not drawn) (2.5 µM) 0, Cc1cncc2cccc(S(=O)(=O)N3CCCNC[C@@H]3C)c12 [H-1152 (dihydrochloride)] (10 µM) 0, Cc1nc(NC(=O)N2CCC[C@H]2C(N)=O)sc1-c1ccnc(C(C)(C)C(F)(F)F)c1 [Alpelisib] (2.5 µM) 0, CCCCNc1ncc2c(-c3ccc(F)cc3)nn(CC3CCC(N)CC3)c2n1 (stereo not drawn) (2.5 µM) 0, CS(=O)(=O)c1ccc([C@@H](CC2CCCC2)C(=O)Nc2nccs2)cc1 (10 µM) 0, CO/N=C1/C(c2c(O)[nH]c3cc(Cl)c(Cl)cc23)=Nc2ccccc21 (10 µM) 0, CNCc1ccccc1Sc1cccc2ccccc12 [IFN alpha-IFNAR-IN-1 (hydrochloride)] (10 µM) 0, C=CC(=O)N1CCC(c2ccc(C(N)=O)c(-c3ccc(Oc4ccccc4)cc3)n2)CC1 [Orelabrutinib] (2.5 µM) 0, Cc1cc2c(F)c(Oc3ncnn4cc(OC[C@@H](C)OC(=O)[C@H](C)N)c(C)c34)ccc2[nH]1 [Brivanib (alaninate)] (10 µM) 0, CCC(F)(F)c1cc(N2CCC(S(C)(=O)=O)CC2)nc2sc(C(N)=O)c(N)c12 (10 µM) 0, NC(=O)c1c(NC(=O)C2CC2)sc2c1CCCC2 (10 µM) 0, CC(C)=CCC[C@](C)(O[C@@H]1O[C@H](CO[C@@H]2O[C@H](CO)[C@@H](O)[C@H](O)[C@H]2O)[C@@H](O)[C@H](O)[C@H]1O)[C@H]1CC[C@]2(C)[C@@H]1[C@H](O)C[C@@H]1[C@@]3(C)CC[C@H](O[C@@H]4O[C@H](CO)[C@@H](O)[C@H](O)[C@H]4O[C@@H]4O[C@H](CO)[C@@H](O)[C@H](O)[C@H]4O)C(C)(C)[C@@H]3CC[C@]12C [Ginsenoside Rb1] (10 µM) 0, COc1cccc(-c2cc(=O)c3ccccc3o2)c1N (10 µM) 0, C[C@@H]1COC(Nc2ccc3ncnc(Nc4ccc(OCc5nccs5)c(Cl)c4)c3c2)=N1 [Varlitinib] (10 µM) 0, Cc1nc(Nc2cnn(C3CCNCC3)c2)nc2c1N(C)C(=O)c1cc3ccccc3cc1N2C (2.5 µM) 0
